Measurements from PMC8503262.
Like-named read-outs stand apart in the source and are kept apart here. Results are given in words; binding and its absence hold for the method and conditions named. For part of these data: Binding seen in cells or lysates may run through a third protein. Some entries that bind do so weakly or less than the wild type. For part of these data: Sequences can lack the tags named with a protein.

Chains of the proteins cited; added tags and fusions are not shown.
UniProt Q8NHY2: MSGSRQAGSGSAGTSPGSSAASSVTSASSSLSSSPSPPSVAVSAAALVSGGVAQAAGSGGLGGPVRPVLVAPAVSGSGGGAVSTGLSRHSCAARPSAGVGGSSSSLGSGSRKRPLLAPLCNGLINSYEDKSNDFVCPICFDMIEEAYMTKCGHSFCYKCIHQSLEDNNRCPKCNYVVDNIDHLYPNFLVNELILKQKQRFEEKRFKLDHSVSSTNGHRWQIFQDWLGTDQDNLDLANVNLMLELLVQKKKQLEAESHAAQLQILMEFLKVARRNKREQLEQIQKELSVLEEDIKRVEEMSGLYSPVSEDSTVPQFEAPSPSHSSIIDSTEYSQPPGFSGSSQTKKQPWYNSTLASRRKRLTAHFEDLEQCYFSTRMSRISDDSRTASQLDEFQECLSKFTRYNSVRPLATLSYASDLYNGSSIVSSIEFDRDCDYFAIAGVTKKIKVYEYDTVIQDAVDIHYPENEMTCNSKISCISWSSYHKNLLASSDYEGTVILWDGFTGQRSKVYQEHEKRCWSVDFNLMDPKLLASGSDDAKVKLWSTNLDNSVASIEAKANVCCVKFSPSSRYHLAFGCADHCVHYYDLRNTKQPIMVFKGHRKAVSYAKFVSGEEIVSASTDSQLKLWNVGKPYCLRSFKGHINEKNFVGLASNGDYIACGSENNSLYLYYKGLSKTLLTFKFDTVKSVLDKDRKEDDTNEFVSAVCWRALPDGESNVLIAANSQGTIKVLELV
UniProt P25963: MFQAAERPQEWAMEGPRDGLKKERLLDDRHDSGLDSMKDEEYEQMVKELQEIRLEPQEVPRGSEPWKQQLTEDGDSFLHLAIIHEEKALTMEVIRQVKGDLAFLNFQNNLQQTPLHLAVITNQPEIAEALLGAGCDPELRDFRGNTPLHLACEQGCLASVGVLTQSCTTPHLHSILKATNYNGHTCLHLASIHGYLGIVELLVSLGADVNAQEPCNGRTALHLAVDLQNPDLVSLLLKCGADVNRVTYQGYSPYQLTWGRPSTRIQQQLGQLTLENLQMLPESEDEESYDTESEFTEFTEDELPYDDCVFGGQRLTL

What was measured:
Flag-TRIB2-Full = target: T1, Flag-TRIB2-Full (UniProt Q92519); assay: co-IP; 293T cells transfected with Flag-tagged TRIB2 constructs for 48 h; total lysate in NP-40 buffer (50 mM Tris-Cl pH 7.4, 150 mM NaCl, 1 mM EDTA, 1% NP-40, 0.5% SDS) incubated with Anti-Flag M2 Affinity Gel at 4°C for 2 h; immunoblot of endogenous partners
T1 sequence: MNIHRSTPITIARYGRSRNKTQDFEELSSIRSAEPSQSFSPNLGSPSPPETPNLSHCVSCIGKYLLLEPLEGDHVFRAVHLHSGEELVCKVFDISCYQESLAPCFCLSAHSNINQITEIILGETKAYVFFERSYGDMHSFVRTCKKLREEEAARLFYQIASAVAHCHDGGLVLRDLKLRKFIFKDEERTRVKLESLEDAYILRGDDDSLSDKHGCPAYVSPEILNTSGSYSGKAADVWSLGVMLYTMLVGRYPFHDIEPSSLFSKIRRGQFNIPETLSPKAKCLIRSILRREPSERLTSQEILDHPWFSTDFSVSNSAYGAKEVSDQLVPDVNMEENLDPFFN

[1] = target: RFWD2 (human (endogenous in 293T)) (UniProt Q8NHY2); assay: co-IP; endogenous proteins; whole-cell lysate of 293T cells immunoprecipitated with RFWD2 antibody overnight at 4°C, protein G/A beads 2 h at 4°C; immunoblot
[2] = target: IκB-α (human (endogenous in 293T)) (UniProt P25963); assay: co-IP; endogenous proteins; 293T lysate immunoprecipitated with anti-IκB-α antibodies overnight at 4°C, protein G/A beads 2 h at 4°C; immunoblot
[3] = target: RFWD2 (human (endogenous in 293T)) (UniProt Q8NHY2); assay: co-IP; endogenous proteins; whole-cell lysate of 293T cells immunoprecipitated with RFWD2 antibody overnight at 4°C, protein G/A beads 2 h at 4°C; immunoblot; remark: listed apart in the source
[4] = target: IκB-α, eukaryotic expressed and purified (UniProt P25963); assay: co-IP; eukaryotic expressed and purified TRIB2 and IκB-α proteins; precipitated with IκB-α antibodies; both purified

IκB-α (from UniProt P25963 1-317)
binding (Flag-TRIB2-Full): binds | binding [1]: binds

p-IκB-α (from UniProt P25963 1-317)
binding (Flag-TRIB2-Full): binds

B1: TRIB2 (protein, UniProt Q92519 1-343)
chain: MNIHRSTPITIARYGRSRNKTQDFEELSSIRSAEPSQSFSPNLGSPSPPETPNLSHCVSCIGKYLLLEPLEGDHVFRAVHLHSGEELVCKVFDISCYQESLAPCFCLSAHSNINQITEIILGETKAYVFFERSYGDMHSFVRTCKKLREEEAARLFYQIASAVAHCHDGGLVLRDLKLRKFIFKDEERTRVKLESLEDAYILRGDDDSLSDKHGCPAYVSPEILNTSGSYSGKAADVWSLGVMLYTMLVGRYPFHDIEPSSLFSKIRRGQFNIPETLSPKAKCLIRSILRREPSERLTSQEILDHPWFSTDFSVSNSAYGAKEVSDQLVPDVNMEENLDPFFN
binding [2]: binds | binding [3]: binds

B2: TRIB2, eukaryotic expressed and purified (protein, UniProt Q92519 1-343)
chain: MNIHRSTPITIARYGRSRNKTQDFEELSSIRSAEPSQSFSPNLGSPSPPETPNLSHCVSCIGKYLLLEPLEGDHVFRAVHLHSGEELVCKVFDISCYQESLAPCFCLSAHSNINQITEIILGETKAYVFFERSYGDMHSFVRTCKKLREEEAARLFYQIASAVAHCHDGGLVLRDLKLRKFIFKDEERTRVKLESLEDAYILRGDDDSLSDKHGCPAYVSPEILNTSGSYSGKAADVWSLGVMLYTMLVGRYPFHDIEPSSLFSKIRRGQFNIPETLSPKAKCLIRSILRREPSERLTSQEILDHPWFSTDFSVSNSAYGAKEVSDQLVPDVNMEENLDPFFN
binding [4]: binds
